Experimental data as given in patent US20090264354A1 (UNIVERSITY OF UTAH RESEARCH FOUNDATION, published 2009).
These are yes or no findings as the source states them, for the method shown. Binding seen in cells or lysates may run through a third protein. Some entries that bind do so weakly or less than the wild type. Where a sequence is shown, tags or fusion partners need not be part of it.

Biological target: T1, Penumbra-EGFP fusion protein (murine Penumbra with C-terminal enhanced green fluorescent protein, expressed from pEGFP N1/Pen) (mouse) (UniProt Q8R3S2)
T1 sequence: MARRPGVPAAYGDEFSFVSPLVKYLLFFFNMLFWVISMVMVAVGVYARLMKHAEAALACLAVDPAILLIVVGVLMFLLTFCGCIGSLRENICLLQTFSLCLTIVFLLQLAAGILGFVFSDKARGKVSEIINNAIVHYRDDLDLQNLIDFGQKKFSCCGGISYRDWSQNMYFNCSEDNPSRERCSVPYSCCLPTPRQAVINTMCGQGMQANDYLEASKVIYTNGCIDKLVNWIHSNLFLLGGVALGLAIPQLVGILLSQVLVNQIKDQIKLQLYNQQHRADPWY
Experiment: anti-Myc co-immunoprecipitation from co-transfected NIH3T3 lysates, non-reducing Western blot probed with anti-Myc and anti-EGFP; 89-kD dimer

B1: Penumbra-Myc fusion protein (murine Penumbra with C-terminal 11-aa Myc and 6-aa His tags, expressed from pcDNA3.1/Pen-Myc) (other)
chain: MARRPGVPAAYGDEFSFVSPLVKYLLFFFNMLFWVISMVMVAVGVYARLMKHAEAALACLAVDPAILLIVVGVLMFLLTFCGCIGSLRENICLLQTFSLCLTIVFLLQLAAGILGFVFSDKARGKVSEIINNAIVHYRDDLDLQNLIDFGQKKFSCCGGISYRDWSQNMYFNCSEDNPSRERCSVPYSCCLPTPRQAVINTMCGQGMQANDYLEASKVIYTNGCIDKLVNWIHSNLFLLGGVALGLAIPQLVGILLSQVLVNQIKDQIKLQLYNQQHRADPWY
notes: Seen as a 29-kD monomer on reducing gels; also called Pen-Myc fusion protein; Pen-Myc protein; not shown: 11-aa Myc tag from the pcDNA3.1 vector; 6-aa His tag from the pcDNA3.1 vector
B1 was tested, and the binding was “binds”.
